According to article doi:10.1101/437228:
Results are given in words; binding and its absence hold for the method and conditions named. In cells and extracts the contact can be indirect. A yes stands for co-enrichment or nearness to the bait. Other partners may have been found.

Sequences of proteins named here, by UniProt entry; tags and fusion partners are left off.
UniProt O08539: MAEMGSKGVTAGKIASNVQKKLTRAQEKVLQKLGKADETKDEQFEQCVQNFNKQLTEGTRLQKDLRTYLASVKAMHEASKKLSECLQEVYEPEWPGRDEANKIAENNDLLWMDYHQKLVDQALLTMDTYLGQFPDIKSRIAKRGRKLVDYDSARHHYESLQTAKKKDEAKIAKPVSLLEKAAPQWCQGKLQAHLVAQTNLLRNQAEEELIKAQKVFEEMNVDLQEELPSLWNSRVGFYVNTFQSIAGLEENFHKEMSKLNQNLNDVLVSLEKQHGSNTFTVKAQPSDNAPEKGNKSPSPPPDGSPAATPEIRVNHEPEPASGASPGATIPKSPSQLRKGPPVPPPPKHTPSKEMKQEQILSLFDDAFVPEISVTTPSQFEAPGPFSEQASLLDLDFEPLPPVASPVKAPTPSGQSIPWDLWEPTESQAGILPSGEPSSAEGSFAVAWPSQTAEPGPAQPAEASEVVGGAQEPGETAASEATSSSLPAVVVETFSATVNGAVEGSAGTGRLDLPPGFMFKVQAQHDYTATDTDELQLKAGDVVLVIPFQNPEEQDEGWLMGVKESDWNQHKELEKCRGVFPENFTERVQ

B1: Mog (protein, UniProt Q61885 29-246)
chain: GQFRVIGPGYPIRALVGDEAELPCRISPGKNATGMEVGWYRSPFSRVVHLYRNGKDQDAEQAPEYRGRTELLKETISEGKVTLRIQNVRFSDEGGYTCFFRDHSYQEEAAMELKVEDPFYWVNPGVLTLIALVPTILLQVPVGLVFLFLQHRLRGKLRAEVENLHRTFDPHFLRVPCWKITLFVIVPVLGPLVALIICYNWLHRRLAGQFLEELRNPF
B2: Plp1 (protein, UniProt P60202 1-277)
chain: MGLLECCARCLVGAPFASLVATGLCFFGVALFCGCGHEALTGTEKLIETYFSKNYQDYEYLINVIHAFQYVIYGTASFFFLYGALLLAEGFYTTGAVRQIFGDYKTTICGKGLSATVTGGQKGRGSRGQHQAHSLERVCHCLGKWLGHPDKFVGITYALTVVWLLVFACSAVPVYIYFNTWTTCQSIAFPSKTSASIGSLCADARMYGVLPWNAFPGKVCGSNLLSICKTAEFQMTFHLFIAAFVGAAATLVSLLTFMIAATYNFAVLKLMGRGTKF

Target: Bin1-HHStag (mouse BIN1 with a twin tag inserted in exon 19, all isoforms tagged) (mouse) (UniProt O08539)
Assay: affinity purification with mass spectrometry

Row | Binder | binding
1 | B1 | binds
2 | B2 | binds
